Measured values reported in patent publication US20160244435A1, “EXPANDED THERAPEUTIC POTENTIAL IN NITROHETEROARYL ANTIMICROBIALS” (The Regents of the University of California, priority 2013, published 2016).
Some results were stated once for a whole list of compounds, not compound by compound.

Test system: Mz-resistant (MzR) Giardia lines
Format: cell-based, Giardia lamblia

CCS(=O)(=O)CCn1c([N+](=O)[O-])cnc1C [tinidazole]
residual activity (RA) in the resistant lines, 100%×(EC50 in MzS/EC50 in MzR) (laboratory-generated MzR lines from WB, 106, 713 and 1279): 2.5-25%
increases in EC50 (resistance) (laboratory-generated MzR lines from parental isolates WB, 106, 713 and 1279): 4-40 fold
